PubChem BioAssay AID743121 | NCATS, 2013

Purpose: 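Partners whose loss is lethal together with topoisomerase I blockade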 (primary screen)
Cell system: MDA-MB-231 cells, a human breast cancer line
Reagents: single siRNA against human genes, 20 nM siRNA (0.8 pmol per well)
Duration: 120 h (drug added 48 h after transfection, read 72 h later)
Conditions: camptothecin 20 nM (about EC30) for 72 h; vehicle 0.1% DMSO in parallel plates
Detection: 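CellTiter-Glo ATP signal, scaled to control siRNA as percent viability; sensitisation given as log2 of untreated divided by camptothecin-treated viability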
Direction: log2 vehicle/camptothecin viability: higher = stronger sensitisation to camptothecin
Rule for the call: 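Active genes have an RSA gene-level p-value below 0.001, computed from the ratios of their separate siRNAs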
Shown is one part, drawn at random, of about 26,000 deposited reagents. Over the whole deposit, 167 (0.63%) were called active. 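Calls are per gene from RSA p-values that are not deposited; an individual active-marked siRNA can sensitise only weakly.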 Reagents against one gene are numbered here. Further read-outs or replicates are left out here.

With knock-down of SPARCL1 (GeneID 8404) #1, the screen gave log2 vehicle/camptothecin viability -0.51; inactive. SPARCL1 (GeneID 8404) #2 gave log2 vehicle/camptothecin viability -0.0944; inactive. SPARCL1 (GeneID 8404) #3 showed log2 vehicle/camptothecin viability -0.34; inactive. SPARCL1 (GeneID 8404) #4 gave log2 vehicle/camptothecin viability -0.447; inactive. With knock-down of OR8G1 (GeneID 26494) #1, the screen gave log2 vehicle/camptothecin viability -0.126; inactive. Knock-down of OR8G1 (GeneID 26494) #2 resulted in: log2 vehicle/camptothecin viability -0.0965; inactive.

After knock-down of OR8G1 (GeneID 26494) #3, the screen gave log2 vehicle/camptothecin viability -0.0687; inactive. For OR8G1 (GeneID 26494) #4, the values are log2 vehicle/camptothecin viability -0.31; inactive. Knock-down of GPHRB (GeneID 51463) #1 gave: log2 vehicle/camptothecin viability 0.128; inactive. Silencing of GPHRB (GeneID 51463) #2 came out at: log2 vehicle/camptothecin viability 1.22; inactive. After knock-down of GPHRB (GeneID 51463) #3 the results were log2 vehicle/camptothecin viability -0.245; inactive. For GPHRB (GeneID 51463) #4, the entry reads log2 vehicle/camptothecin viability -0.0222; inactive.

Not a retest: entries from further up.
GPHRB (GeneID 51463) #1 → log2 vehicle/camptothecin viability = 0.128; outcome = inactive
GPHRB (GeneID 51463) #2 → log2 vehicle/camptothecin viability = 1.22; outcome = inactive
GPHRB (GeneID 51463) #3 → log2 vehicle/camptothecin viability = -0.245; outcome = inactive

Continued:
Against PIK3CG (GeneID 5294) #1, the values are log2 vehicle/camptothecin viability -0.635; inactive. For PIK3CG (GeneID 5294) #2, the values are log2 vehicle/camptothecin viability -0.101; inactive. After knock-down of PIK3CG (GeneID 5294) #3 the results were log2 vehicle/camptothecin viability -0.397; inactive. Silencing of PIK3CG (GeneID 5294) #4 gave: log2 vehicle/camptothecin viability -0.147; inactive. MSH6 (GeneID 2956) #1 scored log2 vehicle/camptothecin viability -0.126; inactive. Against MSH6 (GeneID 2956) #2 the deposit lists log2 vehicle/camptothecin viability -0.0288; inactive.

With knock-down of MSH6 (GeneID 2956) #3 the results were log2 vehicle/camptothecin viability 0.426; inactive. MSH6 (GeneID 2956) #4 scored log2 vehicle/camptothecin viability 0.52; inactive. Against DDX20 (GeneID 11218) #1 the deposit lists log2 vehicle/camptothecin viability -0.0967; inactive. After knock-down of DDX20 (GeneID 11218) #2, the record shows log2 vehicle/camptothecin viability -0.58; inactive. With knock-down of DDX20 (GeneID 11218) #3 the results were log2 vehicle/camptothecin viability -0.222; inactive. Knock-down of CPD (GeneID 1362) #1 resulted in: log2 vehicle/camptothecin viability -0.259; inactive.

After knock-down of CPD (GeneID 1362) #2, the record shows log2 vehicle/camptothecin viability -0.0398; inactive. CPD (GeneID 1362) #3 gave log2 vehicle/camptothecin viability -0.241; inactive. For CPD (GeneID 1362) #4, the values are log2 vehicle/camptothecin viability -0.0969; inactive.
